# At least one structure is not confirmed: it was looked up by name or label, or the drawing left a doubt.
# Molecular target: T1, BaF3 (EGFR/D770insSVD) (Homo sapiens, UniProt P00533, cells depend on it, form not given)
# T1 construct: other: A763insFQEA, V769ins
# Experiment: Test 13: EGFR exon 20 inserted D770insSVD cell proliferation test
# Assay type: cell-based
# Details: A763insFQEA, V769insASV, D770insSVD (tests 13-15), in words
# Experimental: Test 13: EGFR Exon 20 Inserted D770insSVD Cell Proliferation Test
# The number of viable cells in the culture was measured according to the protocol described in Promega's Cell Titer-Glo Luminescent cell Viability Assay (Promega catalog number #G7570). 90 μl of cells (3,000 cells/well) were cultured in growth medium in a Corning black transparent bottom 96-well plate, and cultured in a 5% CO2 humidified incubator at 37° C. overnight. The compound serially diluted in 100% DMSO was added to the cells using a pipette, and the cells were incubated for another 72 hours. 100 μl of the mixed Cell Titer-Glo reagent was added to the cells in the 96-well culture plate to lyse the cells and mix gently. Subsequently, the […] was detected on the Envision microplate detector to obtain the data of each compound. Finally, the data was input into a suitable software package (such as Prism) for curve fitting analysis.
compound,measurement,value
"COc1cc(N2CC[C@@H]2CN(C)C)c(NC(=O)/C=C/CN(C)C)cc1Nc1ncnc(-n2ccc3cnccc32)n1 [Example 2, (R,E)-N-(5-((4-(1H-pyrrole[3,2-c]pyridin-1-yl)-1,3,5-triazin-2-yl)amino)-2-(2-((dimethylamino)methyl)azetidine-1-yl)-4-methoxyphenyl)-4-(dimethylamino)butene-2-amide]",cell activity compared with Osimertinib (AZD9291) against EGFR exon 20 insertion mutations,significant superior cell activity over Osimertinib (AZD9291)
